Some of the results follow. The main result of the screen is listed elsewhere. These columns were measured beside it and carry no call. The list favours compounds with an active or inconclusive main result. Potencies come from curve fits of mixed quality, noted in brackets.
Experiment: qHTS Assay for Modulators of Lamin A Splicing
Details: HeLa LMNA splicing GFP/RFP minigene ratio, 48 h
Procedure, shortened: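 Read-out is the ratio of GFP to DsRed2 object intensity, acquired by 488 nm laser-scanning cytometry on HeLa lamin A-EGFP minigene reporter cells. Compound incubation 48 hrs at 37 °C in Opti-MEM with 2% FBS; DMSO 0.5% final.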

[1] = measured here: GFP splicing reporter channel
[2] = measured here: RFP viability control channel

SMILES	AC50 [1]	AC50 [2]
S=c1nc[nH]c2c1ncn2C1CCCO1 (stereo unspecified)	0.355 µM [falling, full curve, poor fit]	
CC1=C(C(=O)NCc2cccc(F)c2)C2(CCCCC2)OC1=O	14.1 µM [rising, single point]	17.8 µM [rising, single point]
Cc1cccc(N2C(=O)CN(Cc3cccs3)C2=S)c1	0.141 µM [falling, full curve, poor fit]	0.0891 µM [falling, full curve, poor fit]
CCOC(=O)/C(C#N)=C/c1cc(C)n(-c2ccc(C)cc2)c1C		17.8 µM [rising, single point]
COc1ccc(C(=O)CSc2nnc(CCc3ccccc3)n2-c2ccccc2)cc1	1.58 µM [falling, partial curve]	1.12 µM [falling, partial curve]
Cc1ccc(CN2C(=O)S/C(=C\c3ccccc3OCC(=O)O)C2=O)cc1		2.51 µM [rising, partial curve, poor fit]
Cc1nn(C)cc1CN(C)C(=O)c1cc(-c2ccccc2)nc2ccc(Br)cc12		0.562 µM [falling, full curve, poor fit]
CCC(=O)NC(=S)Nc1cccc(NC(=O)CC)c1		0.891 µM [rising, partial curve]
COc1ccc(-c2cn3cccnc3n2)cc1NS(=O)(=O)c1ccccc1	6.31 µM [falling, partial curve, poor fit]	
CCOC(=O)CSc1ccc(C(=O)Nc2ccc(Cl)cc2)cn1	10 µM [falling, partial curve, poor fit]	
CCOc1ccc(NC(=O)CCSc2nc3c(c(CC)c2C#N)C(=O)CC(C)(C)C3)cc1	22.4 µM [falling, partial curve, poor fit]	22.4 µM [falling, partial curve, poor fit]
Cc1cc(C)c2c(N)c(C(=O)Nc3nccs3)sc2n1		5.01 µM [rising, single point]
CCOC(=O)c1cccc(NC(=O)C2CCCN(S(=O)(=O)c3c(C)n[nH]c3C)C2)c1 (stereo unspecified)		31.6 µM [rising, single point]
CC(C)Cn1c(N)c(C(=O)COC(=O)c2cc(C(F)(F)F)nc3ccccc23)c(=O)n(C)c1=O		35.5 µM [rising, single point]
COCc1cc(C)nc2c1C(=O)NC(c1ccc(F)cc1)N2Cc1ccccc1 (stereo unspecified)		0.0158 µM [falling, full curve, poor fit]
COc1ccc(CNC(=S)Nc2cc(C)cc(C)c2)cc1	15.8 µM [rising, single point]	31.6 µM [rising, single point]
COc1ccccc1N1CCN(C(=O)CCCN2C(=O)c3cccc4cccc(c34)C2=O)CC1		0.0316 µM [rising, full curve, poor fit]
CSc1nc(-c2ccccc2)cn1-c1ccc(NC(C)=O)cc1		17.8 µM [rising, partial curve, poor fit]
COCC(C)NC(=O)CCS(=O)(=O)c1nc(-c2ccc(OC)cc2)cc(C(F)(F)F)n1 (stereo unspecified)		31.6 µM [falling, single point]
Cc1ccc2cc(/C=N/NC(=O)c3ccccc3O)c(Cl)nc2c1	35.5 µM [rising, single point]	25.1 µM [rising, single point]
COc1ccc(C(=O)Nc2cccc(-c3nnc(-c4ccco4)o3)c2)cc1		31.6 µM [rising, single point]
COc1ccc(CNc2ncnc3ccc(-c4cccc(NS(C)(=O)=O)c4)cc23)c(OC)c1	6.31 µM [falling, full curve]	6.31 µM [falling, full curve]
O=C(Nc1ccccc1F)N(CCCN1CCOCC1)Cc1cc2cc3c(cc2[nH]c1=O)OCCO3		17.8 µM [rising, single point]
O=c1c(=O)n(-c2ccc(F)c(F)c2)ccn1Cc1ccc(F)cc1Cl		17.8 µM [falling, partial curve, poor fit]
CCOc1ccc(NC(=O)N2CCN(c3nnc(C)c4c(C)n(-c5ccccc5)nc34)CC2)cc1		2 µM [falling, full curve, poor fit]
CN(C)/N=N/c1nc[nH]c1C(N)=O	10 µM [rising, partial curve, poor fit]	11.2 µM [rising, partial curve, poor fit]
CCOC(=O)c1noc2ncn(CC(=O)Nc3cccc(C(F)(F)F)c3)c(=O)c12		4.47 µM [falling, single point]
CCn1cc([N+](=O)[O-])c(C(=O)N2N=C(c3cccc4ccccc34)CC2c2ccccc2O)n1 (stereo unspecified)		17.8 µM [rising, single point]

Looked up one by one from the entries so far:
SMILES	AC50 [1]	AC50 [2]
COc1ccc(CNC(=S)Nc2cc(C)cc(C)c2)cc1	15.8 µM [rising, single point]	31.6 µM [rising, single point]
CC1=C(C(=O)NCc2cccc(F)c2)C2(CCCCC2)OC1=O	14.1 µM [rising, single point]	17.8 µM [rising, single point]

— PubChem BioAssay AID1487 (National Center for Advancing Translational Sciences (NCATS), 2009)
